Counter-ions that a name gives are not always drawn. ± gives the standard deviation of the averaged measurements. This is one part of the list. These are raw signals, not scaled to a control.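 Ribosome-assembly readouts in HeLa cells were imaged via ENP1 staining, with or without export block, or inducible tagged ribosomal protein reporters. Machine learning classified per-cell signal location versus solvent (DMSO) controls. Hits surpassed the DMSO false-positive mean by five standard deviations and were visually confirmed; three biological replicates.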
Tested on: HeLa K (ENP1 immunofluorescence, +LMB)
Experiment: fraction of cells with nucleolar or nucleolar/nucleoplasmic ENP1 signal (MainHitrate); higher = more cells with nucleolar/nuclear readout signal (for ENP1 -LMB: less RNAPI inhibition; for +LMB ENP1 and RP reporters: stronger nuclear/nucleolar retention, i.e. ribosome biogenesis defect)
Settings: concentration: 1 µM; treatment time: 6 h; ENP1 +LMB; leptomycin B: 20 nM, last 1.5 h

Row | Compound | fraction
1 | CC(C)c1nc(CN(C)C(=O)N[C@@H](CCN2CCOCC2)C(=O)N[C@H](CC[C@H](Cc2ccccc2)NC(=O)OCc2cncs2)Cc2ccccc2)cs1 [Cobicistat (GS-9350)] | 0.0532 ± 0.065
2 | CN(C)[C@@H]1C(O)=C(C(N)=O)C(=O)[C@@]2(O)C(O)=C3C(=O)c4c(O)cccc4[C@@](C)(O)[C@H]3[C@H](O)[C@@H]12 [Oxytetracycline (Terramycin)] | 0.107 ± 0.14
3 | CC1(C)S[C@@H]2[C@H](NC(=O)[C@H](NC(=O)N3CCN(S(C)(=O)=O)C3=O)c3ccccc3)C(=O)N2[C@H]1C(=O)O [Mezlocillin Sodium] | 0.0591 ± 0.07
4 | COc1cc(NC(C)CCCN)c2ncccc2c1 (stereo not given) [Primaquine Diphosphate] | 0.174 ± 0.18
5 | Cc1cc(C2CCCCC2)n(O)c(=O)c1 [Ciclopirox (Penlac)] | 0.106 ± 0.13
6 | C[N+](C)(C)CCOC(N)=O [Carbachol] | 0.0864 ± 0.082
7 | N[C@H](Cc1ccccc1)C(=O)O [D-Phenylalanine] | 0.088 ± 0.13
8 | O=C(O)Cc1ccccc1Nc1c(Cl)cccc1Cl [Diclofenac Potassium] | 0.132 ± 0.19
9 | Nc1ccc(S(=O)(=O)Nc2ccccn2)cc1 [Sulfapyridine (Dagenan)] | 0.103 ± 0.098
10 | Cc1cccc(C)c1NC(=O)C1CCCCN1C (stereo not given) [Mepivacaine HCl] | 0.105 ± 0.15
11 | CCCC(=O)[O-].[Na+] [Sodium butyrate] | 0.189 ± 0.29
12 | CC1(C)O[C@@H]2C[C@H]3[C@@H]4C[C@H](F)C5=CC(=O)C=C[C@]5(C)[C@@]4(F)[C@@H](O)C[C@]3(C)[C@]2(C(=O)CO)O1 [Fluocinolone acetonide (Flucort-N)] | 0.0662 ± 0.092
13 | COc1cc(C(=O)NC2CCCNC2)cc(OC)c1OC (stereo not given) [Troxipide] | 0.112 ± 0.16
14 | COc1ccccc1OCC(O)CN1CCN(CC(=O)Nc2c(C)cccc2C)CC1 (stereo not given) [Ranolazine (Ranexa)] | 0.0599 ± 0.086
15 | O=C(O)c1cn(-c2ccc(F)cc2)c2cc(N3CCNCC3)c(F)cc2c1=O [Sarafloxacin HCl] | 0.0881 ± 0.12
16 | Cc1cnc(NC(=O)C2=C(O)c3ccccc3S(=O)(=O)N2C)s1 [Meloxicam (Mobic)] | 0.0943 ± 0.1
17 | CNCC(O)c1ccc(O)c(O)c1 (racemic) [DL-Adrenaline] | 0.121 ± 0.17
18 | Cc1cc2c(cc1S(N)(=O)=O)S(=O)(=O)CCC2 [Meticrane] | 0.233 ± 0.31
19 | Clc1ccc2c(c1)C(N1CCNCC1)=Nc1ccccc1O2 [Amoxapine] | 0.0784 ± 0.12
20 | Cc1cn([C@H]2C=C[C@@H](CO)O2)c(=O)[nH]c1=O [Stavudine] | 0.12 ± 0.14

Look-ups from above:
In fraction, CC(C)c1nc(CN(C)C(=O)N[C@@H](CCN2CCOCC2)C(=O)N[C@H](CC[C@H](Cc2ccccc2)NC(=O)OCc2cncs2)Cc2ccccc2)cs1 [Cobicistat (GS-9350)] reads 0.0532 ± 0.065
In fraction, CN(C)[C@@H]1C(O)=C(C(N)=O)C(=O)[C@@]2(O)C(O)=C3C(=O)c4c(O)cccc4[C@@](C)(O)[C@H]3[C@H](O)[C@@H]12 [Oxytetracycline (Terramycin)] reads 0.107 ± 0.14
In fraction, CNCC(O)c1ccc(O)c(O)c1 (racemic) [DL-Adrenaline] reads 0.121 ± 0.17

(continued)

Row | Compound | fraction
21 | CC[C@H](C)C(=O)O[C@H]1C[C@@H](C)C=C2C=C[C@H](C)[C@H](CC[C@@H]3C[C@@H](O)CC(=O)O3)[C@H]21 [Lovastatin (Mevacor)] | 0.0906 ± 0.13
22 | CCCCc1ncc(/C=C(\Cc2cccs2)C(=O)O)n1Cc1ccc(C(=O)O)cc1 [Eprosartan Mesylate] | 0.0594 ± 0.067
23 | N#CC1(c2ccc(NC(=O)c3cccnc3NCc3ccncc3)cc2)CCCC1 [Apatinib (YN968D1)] | 0.0998 ± 0.14
24 | CCN(CC)C(=S)SSC(=S)N(CC)CC [Disulfiram (Antabuse)] | 0.149 ± 0.16
25 | NC(=O)c1cccnc1 [Nicotinamide (Niacinamide)] | 0.0845 ± 0.11
26 | CC(=O)OCC(=O)[C@@]12N=C(C)O[C@@H]1C[C@H]1[C@@H]3CCC4=CC(=O)C=C[C@]4(C)[C@H]3[C@@H](O)C[C@@]12C [Deflazacort (Calcort)] | 0.11 ± 0.14
27 | CCCNC(C)C(=O)Nc1c(C)csc1C(=O)OC (stereo not given) [Articaine HCl] | 0.0951 ± 0.13
28 | Clc1ccc(COC(Cn2ccnc2)c2ccc(Cl)cc2Cl)cc1 (stereo not given) [Econazole nitrate (Spectazole)] | 0.151 ± 0.19
29 | CC(=O)Oc1ccccc1C(=O)Nc1ncc([N+](=O)[O-])s1 [Nitazoxanide (Alinia, Annita)] | 0.138 ± 0.16
30 | O=c1c(-c2ccc(O)cc2)coc2cc(O)ccc12 [Daidzein] | 0.101 ± 0.13
31 | C=C1CC[C@H](O)C/C1=C/C=C1\CCC[C@]2(C)[C@@H]([C@H](C)CCCC(C)(C)O)CC[C@@H]12 [Calcifediol] | 0.0607 ± 0.029
32 | CC(C)NCC(O)c1ccc(O)c(O)c1 (stereo not given) [Isoprenaline hydrochloride] | 0.13 ± 0.2
33 | S=c1[nH]cnc2nc[nH]c12 [Mercaptopurine] | 0.0784 ± 0.058
34 | CCOc1cc(N)c(Cl)cc1C(=O)NCC1CN(Cc2ccc(F)cc2)CCO1 (stereo not given) [Mosapride citrate] | 0.192 ± 0.25
35 | CCc1c2c(nc3ccc(OC(=O)N4CCC(N5CCCCC5)CC4)cc13)-c1cc3c(c(=O)n1C2)COC(=O)[C@]3(O)CC [Irinotecan HCl Trihydrate (Campto)] | 0.206 ± 0.33
36 | CC#C[C@]1(O)CC[C@H]2[C@@H]3CCC4=CC(=O)CCC4=C3[C@@H](c3ccc(N(C)C)cc3)C[C@@]21C [Mifepristone (Mifeprex)] | 0.0618 ± 0.079
37 | N=C(N)Nc1ccc(C(=O)Oc2ccc3cc(C(=N)N)ccc3c2)cc1 [Nafamostat mesylate] | 0.106 ± 0.14
38 | C=CCNC(N)=S [Allylthiourea] | 0.0735 ± 0.086
39 | C[C@@H]1C[C@H]2[C@@H]3CCC4=CC(=O)C=C[C@]4(C)[C@@]3(F)[C@@H](O)C[C@]2(C)[C@@]1(O)C(=O)CO [Dexamethasone] | 0.0618 ± 0.042
40 | CN1CCCCC1CCN1c2ccccc2Sc2ccc([S+](C)[O-])cc21 (stereo not given) [Mesoridazine Besylate] | 0.0893 ± 0.12

Source: the supplement of paper PMC12542422
